# Some of the results follow.
# Amino acid sequences for entries named in this document (tags omitted).
# UniProt Q0JBA9, entry or part of it: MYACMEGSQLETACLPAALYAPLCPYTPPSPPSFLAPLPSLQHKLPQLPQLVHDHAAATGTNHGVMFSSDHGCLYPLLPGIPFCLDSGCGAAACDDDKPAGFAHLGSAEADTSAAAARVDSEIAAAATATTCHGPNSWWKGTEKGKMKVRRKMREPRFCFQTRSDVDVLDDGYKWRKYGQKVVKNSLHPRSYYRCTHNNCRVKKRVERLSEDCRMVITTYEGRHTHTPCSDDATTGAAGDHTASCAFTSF
# Molecular target: OsWRKY34 (Oryza sativa, UniProt Q0JBA9 1-250)
# Assay: protein-binding microarray (RPBM); PBS, 2% BSA, 51.3 ng/ul salmon testes DNA, 50 uM zinc acetate, 200 nM TF, 25 C, 1 h; high values mean tight binding
# Details: protein: recombinant; tags: N-terminal polyhistidine and DsRed monomer fusion (pET32a); label: CyDye5-dUTP incorporated in the synthesized complementary strand; 3' TTTTT single-stranded linker to array surface; dsDNA, one strand shown
# Procedure, shortened: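 An Axon 4000B scanner gave the binding signal as per-feature fluorescence intensity in arbitrary units. This followed washing of a custom Agilent array that had been incubated for 1 h at 25 °C with 200 nM protein in PBS, 2% BSA, salmon testes DNA and 50 µM zinc acetate. The proteins were transcription factors fused at the N-terminus to polyhistidine and DsRed, expressed in E. coli BL21-CodonPlus and purified on Ni–NTA.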
row,Sequence,binding signal
1,CAAACTTCAGTCCTTTTCCATCACATCAATCTATCATTCACGGAGTCACCTAGTGCAG,8320 fluorescence intensity (a.u.)
2,TCGGACTTCTTTTTTTGGTTTTTTTCTCATCGTTTCTTTTCGGAGTCACCTAGTGCAG,9370 fluorescence intensity (a.u.)
3,CTGTATACATCGCCCGTGTCTTGTGTGTTTCCTGTCTCGCCGGAGTCACCTAGTGCAG,9750 fluorescence intensity (a.u.)
4,TCCACCTACCGCTTGTTCCCCTAATTGATCTCTCCCCATGCGGAGTCACCTAGTGCAG,8210 fluorescence intensity (a.u.)
5,TCTCGCGCCTACTCTCTCTCTCTCGCGCGCGCGCCGTCCTCGGAGTCACCTAGTGCAG,9020 fluorescence intensity (a.u.)
6,CGGATTTGTTCTCACGTGGATATGGTGCAGCGCTGCACACCGGAGTCACCTAGTGCAG,8970 fluorescence intensity (a.u.)
7,CGACACGGTCTCCAAAACACAATTTTGACTTCTTATTTCTCGGAGTCACCTAGTGCAG,8790 fluorescence intensity (a.u.)
8,TCGTGTCCACCATTTTGATCCAGGCTATACATATTGTTTTCGGAGTCACCTAGTGCAG,12100 fluorescence intensity (a.u.)
9,TTTTCACCCACCATCCACCACCTGCCAATCTACCATACATCGGAGTCACCTAGTGCAG,10600 fluorescence intensity (a.u.)
10,ATTTTTCTTTTTATATATTCCCATGCATTTATTTTATATTCGGAGTCACCTAGTGCAG,11400 fluorescence intensity (a.u.)
11,TTATCACACATTTAACCCATTGTTTTCTAATATTTACAATCGGAGTCACCTAGTGCAG,9980 fluorescence intensity (a.u.)
12,ATTCTTATTTTTTAGCATTGTCCATATTTATATATGTGTTCGGAGTCACCTAGTGCAG,8940 fluorescence intensity (a.u.)
13,TGCATACGTACGTGAAATAACGTTATCCATGCTTAGCTTACGGAGTCACCTAGTGCAG,10200 fluorescence intensity (a.u.)
14,ACTGCCGCACCACGTCGCACAGCGCCGCCACATCTTTCTCCGGAGTCACCTAGTGCAG,8070 fluorescence intensity (a.u.)
15,CCTCCTCGGGCACTCCTCCTACCACCGTCACCACCTCGCACGGAGTCACCTAGTGCAG,8570 fluorescence intensity (a.u.)
16,TTGGGTATGTTTGGATCATTATATTAGTCCCTGGTAGAAGCGGAGTCACCTAGTGCAG,9120 fluorescence intensity (a.u.)
17,CGCTCACTTGCTCCTCTCGCTCTCTCTCTCCTCGAGTCTCCGGAGTCACCTAGTGCAG,8860 fluorescence intensity (a.u.)
18,GCGGGGTTGGAGGAGGAGGAGGTGGTGGTGGTGGTGGTGGCGGAGTCACCTAGTGCAG,15300 fluorescence intensity (a.u.)
19,TGACTTTTTATCATATGTTTGACCGTTCGTCTTATTCAAACGGAGTCACCTAGTGCAG,10900 fluorescence intensity (a.u.)
20,CTTTTTTTTTTCTTTCATATTTGTATCGTTTTGGTAGGGGCGGAGTCACCTAGTGCAG,12800 fluorescence intensity (a.u.)
21,CCCTCTCTCTATTTAAGCAAGCACATTCTCCTCTTCTTCTCGGAGTCACCTAGTGCAG,8240 fluorescence intensity (a.u.)
22,GACAGTTCTAAGACCCATCTCTAAGGTATTACCATTGCCCCGGAGTCACCTAGTGCAG,8030 fluorescence intensity (a.u.)
23,AGTTGTGGGCCATTCTTACCGTCACTTTGTCCCAAATTTCCGGAGTCACCTAGTGCAG,9300 fluorescence intensity (a.u.)

# Shown tab-delimited: entries from further up.
row	Sequence	binding signal
11	TTATCACACATTTAACCCATTGTTTTCTAATATTTACAATCGGAGTCACCTAGTGCAG	9980 fluorescence intensity (a.u.)
20	CTTTTTTTTTTCTTTCATATTTGTATCGTTTTGGTAGGGGCGGAGTCACCTAGTGCAG	12800 fluorescence intensity (a.u.)
